Results on one sequence are retold here after paper PMC5996148.

Test systems include PBK (human); PBLD (human); PBRM1 (human); PCBD1 (human); PCBD2 (human); PCBP1 (human); PCBP4 (human); PCDHB16 (human); PCDHGC4 (human); PCDHGC5 (human); PCK1 (human); PCLO (human); PCNA (human); PCSK4 (human); PCTP (human); PCYT1B (human); PDCL (human); PDE4A (human).
Experiment in all cases: protein microarray (ProtoArray v5.0), streptavidin-Alexa Fluor 647
Holding throughout (conditions): 3'-biotin; 20 mM Tris (pH 7.5), 5 mM MgCl2, 100 mM KCl, 0.1% Tween-20, A/T-rich and random oligonucleotide blockers; temperature not stated; high values mean tight binding

A further test deals with T1, PCDHGA5 (UniProt Q9Y5G8).
T1 sequence: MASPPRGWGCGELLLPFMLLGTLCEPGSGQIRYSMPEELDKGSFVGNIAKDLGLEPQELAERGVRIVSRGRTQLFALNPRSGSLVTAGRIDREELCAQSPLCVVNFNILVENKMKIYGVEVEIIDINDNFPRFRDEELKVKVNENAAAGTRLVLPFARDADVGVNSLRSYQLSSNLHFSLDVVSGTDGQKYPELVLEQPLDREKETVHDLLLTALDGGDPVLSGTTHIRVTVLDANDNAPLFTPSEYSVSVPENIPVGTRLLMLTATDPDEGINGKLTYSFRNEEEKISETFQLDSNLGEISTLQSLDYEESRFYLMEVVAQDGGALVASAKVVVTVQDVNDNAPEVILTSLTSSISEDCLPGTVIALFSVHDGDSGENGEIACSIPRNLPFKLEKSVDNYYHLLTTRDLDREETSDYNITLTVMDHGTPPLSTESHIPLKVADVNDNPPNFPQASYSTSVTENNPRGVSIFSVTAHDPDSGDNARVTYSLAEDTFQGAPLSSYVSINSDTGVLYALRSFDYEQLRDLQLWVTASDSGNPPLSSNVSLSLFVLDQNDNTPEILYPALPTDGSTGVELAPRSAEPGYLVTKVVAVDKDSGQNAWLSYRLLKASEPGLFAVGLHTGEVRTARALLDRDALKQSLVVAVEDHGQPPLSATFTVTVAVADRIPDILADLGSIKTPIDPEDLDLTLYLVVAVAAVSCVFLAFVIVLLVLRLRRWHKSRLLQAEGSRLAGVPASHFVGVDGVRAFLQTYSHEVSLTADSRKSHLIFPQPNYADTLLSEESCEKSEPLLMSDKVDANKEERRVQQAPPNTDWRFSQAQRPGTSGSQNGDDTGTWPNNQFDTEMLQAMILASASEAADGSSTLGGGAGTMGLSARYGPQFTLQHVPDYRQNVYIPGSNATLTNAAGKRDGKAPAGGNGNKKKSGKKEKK

Another test deals with T2, PDCD5 (UniProt O14737).
T2 sequence: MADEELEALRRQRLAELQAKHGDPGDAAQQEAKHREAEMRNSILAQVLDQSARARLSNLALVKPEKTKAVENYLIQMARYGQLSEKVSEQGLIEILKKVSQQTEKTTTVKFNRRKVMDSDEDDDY

The other results are listed elsewhere or left out. For some assays here: The source does not settle which construct or isoform was used.

For “GGGAGGCTGAGGCAGG [G4-1 biotinylated (PQS2)]”, the binding signal is -0.353 z-score in the test with PBK (human); -0.347 z-score with PBLD (human); -0.276 z-score in the test with PBRM1 (human); -0.341 z-score in the test with PCBD1 (human); -0.299 z-score in the test on PCBD2 (human); -0.297 z-score with PCBP1 (human). Moreover, the binding signal in the test on PCBP4 (human) is -0.325 z-score; with PCDHB16 (human), -0.334 z-score; with PCDHGA5, -0.31 z-score; with PCDHGC4 (human), -0.328 z-score; in the test on PCDHGC5 (human) it was -0.345 z-score; in the test with PCK1 (human), -0.357 z-score. In addition, the binding signal was -0.325 z-score in the test on PCLO (human); -0.347 z-score with PCNA (human); -0.312 z-score in the test on PCSK4 (human); -0.361 z-score in the test on PCTP (human); -0.341 z-score in the test with PCYT1B (human); -0.335 z-score with PDCD5. Further, the binding signal with PDCL (human) is -0.35 z-score; with PDE4A (human), -0.339 z-score.
